From paper PMC4970767
Results are given in words; binding and its absence hold for the method and conditions named. Binding seen in cells or lysates may run through a third protein. Some binding calls cover weakened binding; strength is not graded here.

Chains of the proteins cited; added tags and fusions are not shown. Residues count along the entry.
UniProt P11021, residues 19-654: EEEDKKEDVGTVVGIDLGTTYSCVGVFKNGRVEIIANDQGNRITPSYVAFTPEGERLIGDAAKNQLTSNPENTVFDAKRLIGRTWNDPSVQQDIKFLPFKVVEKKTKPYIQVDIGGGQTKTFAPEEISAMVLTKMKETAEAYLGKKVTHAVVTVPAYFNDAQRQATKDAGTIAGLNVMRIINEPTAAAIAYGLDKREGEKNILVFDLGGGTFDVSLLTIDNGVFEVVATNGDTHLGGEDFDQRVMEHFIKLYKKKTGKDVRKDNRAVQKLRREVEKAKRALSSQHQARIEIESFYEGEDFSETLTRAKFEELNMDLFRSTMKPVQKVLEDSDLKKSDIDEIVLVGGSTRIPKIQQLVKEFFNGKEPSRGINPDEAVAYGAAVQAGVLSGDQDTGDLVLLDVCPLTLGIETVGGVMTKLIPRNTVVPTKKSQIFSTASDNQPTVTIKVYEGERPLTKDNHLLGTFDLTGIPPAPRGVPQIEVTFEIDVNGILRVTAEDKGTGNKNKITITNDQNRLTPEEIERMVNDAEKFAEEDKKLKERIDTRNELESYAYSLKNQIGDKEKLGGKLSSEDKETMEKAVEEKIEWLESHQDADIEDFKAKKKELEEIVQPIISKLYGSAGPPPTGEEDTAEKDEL
UniProt P20029, residues 20-655: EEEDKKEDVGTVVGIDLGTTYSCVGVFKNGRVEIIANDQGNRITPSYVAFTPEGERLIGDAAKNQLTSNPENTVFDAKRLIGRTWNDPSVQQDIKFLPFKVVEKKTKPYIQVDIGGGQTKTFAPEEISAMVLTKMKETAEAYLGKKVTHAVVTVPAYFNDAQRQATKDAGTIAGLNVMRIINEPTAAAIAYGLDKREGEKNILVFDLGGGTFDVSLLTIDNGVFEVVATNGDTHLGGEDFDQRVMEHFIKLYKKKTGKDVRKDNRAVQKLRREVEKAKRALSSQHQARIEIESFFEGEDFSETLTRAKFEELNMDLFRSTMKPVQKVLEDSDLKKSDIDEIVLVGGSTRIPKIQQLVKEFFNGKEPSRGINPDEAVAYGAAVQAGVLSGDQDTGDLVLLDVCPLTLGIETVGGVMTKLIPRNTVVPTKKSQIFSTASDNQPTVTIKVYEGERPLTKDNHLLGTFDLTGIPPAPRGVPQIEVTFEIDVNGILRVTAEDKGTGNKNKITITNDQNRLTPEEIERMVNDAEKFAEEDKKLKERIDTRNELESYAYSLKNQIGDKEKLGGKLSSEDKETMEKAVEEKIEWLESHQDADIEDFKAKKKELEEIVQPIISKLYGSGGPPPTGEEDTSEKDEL
UniProt P21796: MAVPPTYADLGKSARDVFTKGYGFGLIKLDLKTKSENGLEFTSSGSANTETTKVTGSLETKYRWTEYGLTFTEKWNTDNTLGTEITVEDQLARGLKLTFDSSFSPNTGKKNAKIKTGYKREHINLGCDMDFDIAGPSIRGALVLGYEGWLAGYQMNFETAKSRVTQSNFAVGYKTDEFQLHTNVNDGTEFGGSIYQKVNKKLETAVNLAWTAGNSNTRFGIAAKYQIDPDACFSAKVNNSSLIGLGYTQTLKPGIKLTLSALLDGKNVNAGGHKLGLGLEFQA
UniProt P26361: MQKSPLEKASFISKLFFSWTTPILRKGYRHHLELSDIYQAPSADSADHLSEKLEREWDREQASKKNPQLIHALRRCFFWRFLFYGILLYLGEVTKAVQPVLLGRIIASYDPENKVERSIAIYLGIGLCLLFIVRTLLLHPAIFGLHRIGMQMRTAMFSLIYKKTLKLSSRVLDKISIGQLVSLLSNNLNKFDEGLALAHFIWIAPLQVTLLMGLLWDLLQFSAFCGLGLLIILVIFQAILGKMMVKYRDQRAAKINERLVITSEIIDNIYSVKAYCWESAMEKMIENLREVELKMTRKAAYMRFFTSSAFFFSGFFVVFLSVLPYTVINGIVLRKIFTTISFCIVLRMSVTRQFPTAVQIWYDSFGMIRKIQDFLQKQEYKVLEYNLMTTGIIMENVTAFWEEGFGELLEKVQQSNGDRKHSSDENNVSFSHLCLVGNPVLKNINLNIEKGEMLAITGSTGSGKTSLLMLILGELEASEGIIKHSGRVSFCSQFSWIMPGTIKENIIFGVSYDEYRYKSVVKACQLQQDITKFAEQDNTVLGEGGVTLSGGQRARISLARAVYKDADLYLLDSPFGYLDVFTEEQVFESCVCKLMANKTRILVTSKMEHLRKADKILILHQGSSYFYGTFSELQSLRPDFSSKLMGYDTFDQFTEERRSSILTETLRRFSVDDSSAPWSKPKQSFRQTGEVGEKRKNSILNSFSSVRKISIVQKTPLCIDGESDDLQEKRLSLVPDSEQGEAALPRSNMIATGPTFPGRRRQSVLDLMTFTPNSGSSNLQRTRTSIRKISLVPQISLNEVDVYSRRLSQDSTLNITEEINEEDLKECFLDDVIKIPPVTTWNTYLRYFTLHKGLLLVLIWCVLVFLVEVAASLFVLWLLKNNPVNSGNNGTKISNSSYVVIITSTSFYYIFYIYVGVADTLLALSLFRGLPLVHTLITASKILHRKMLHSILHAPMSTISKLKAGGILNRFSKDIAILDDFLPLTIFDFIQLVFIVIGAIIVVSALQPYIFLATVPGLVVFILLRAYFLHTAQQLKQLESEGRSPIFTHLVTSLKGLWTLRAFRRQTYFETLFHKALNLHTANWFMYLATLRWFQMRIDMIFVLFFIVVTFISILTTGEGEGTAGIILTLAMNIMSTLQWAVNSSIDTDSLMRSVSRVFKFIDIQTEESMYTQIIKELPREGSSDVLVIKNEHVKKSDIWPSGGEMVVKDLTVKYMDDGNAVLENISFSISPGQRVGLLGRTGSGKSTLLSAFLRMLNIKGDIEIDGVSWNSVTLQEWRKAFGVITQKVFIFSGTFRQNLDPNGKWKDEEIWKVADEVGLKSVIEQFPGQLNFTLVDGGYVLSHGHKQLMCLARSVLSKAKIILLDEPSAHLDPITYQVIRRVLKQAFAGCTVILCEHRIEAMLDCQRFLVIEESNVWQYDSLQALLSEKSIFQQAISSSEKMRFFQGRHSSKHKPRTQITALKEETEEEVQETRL

How the values were obtained:
[1] = molecular target: Grp78 (Bip), NT2 cells (human (endogenous in NT2)) (UniProt P11021); assay: co-IP; NT2 human germ cell tumor cell lysate, reciprocal immunoprecipitation, Protein A/G PLUS-agarose, Western blot
[2] = molecular target: Grp78 (Bip), mouse testis (mouse (endogenous in testis)) (UniProt P20029); assay: co-IP; mouse testis lysate (400 ug protein, RIPA lysis buffer with 1% NP-40, 0.15 M NaCl, pH 7.4), precleared with normal rabbit serum, antibody overnight at room temperature, Protein A/G PLUS-agarose, Western blot

binding [1]	binding [2]	Substance
binds		VDAC1, NT2 cells (from UniProt P21796 1-283)
	binds	Cystic fibrosis transmembrane conductance regulator (CFTR), mouse testis (from UniProt P26361 1-1476)
